# Results from PubChem BioAssay (Tox21).
# The chains behind the UniProt entries cited, without tags or fusion partners. Where a name states a change or a piece, a line headed by the entry shows the natural chain unless it says otherwise.
# UniProt P28223, whole entry, looked up: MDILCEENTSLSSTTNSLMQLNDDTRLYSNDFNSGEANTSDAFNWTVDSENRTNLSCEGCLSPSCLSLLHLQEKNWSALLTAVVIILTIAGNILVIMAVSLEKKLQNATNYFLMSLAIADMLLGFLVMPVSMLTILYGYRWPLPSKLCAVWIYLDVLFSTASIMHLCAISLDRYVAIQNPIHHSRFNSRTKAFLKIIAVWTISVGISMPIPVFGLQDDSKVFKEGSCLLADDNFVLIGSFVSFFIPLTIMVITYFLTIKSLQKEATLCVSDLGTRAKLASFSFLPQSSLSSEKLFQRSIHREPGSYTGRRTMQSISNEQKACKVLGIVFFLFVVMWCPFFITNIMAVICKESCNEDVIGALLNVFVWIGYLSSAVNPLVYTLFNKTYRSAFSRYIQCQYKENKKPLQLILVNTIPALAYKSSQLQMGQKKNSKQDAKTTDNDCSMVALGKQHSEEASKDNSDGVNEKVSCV
# UniProt P14416, whole entry, looked up: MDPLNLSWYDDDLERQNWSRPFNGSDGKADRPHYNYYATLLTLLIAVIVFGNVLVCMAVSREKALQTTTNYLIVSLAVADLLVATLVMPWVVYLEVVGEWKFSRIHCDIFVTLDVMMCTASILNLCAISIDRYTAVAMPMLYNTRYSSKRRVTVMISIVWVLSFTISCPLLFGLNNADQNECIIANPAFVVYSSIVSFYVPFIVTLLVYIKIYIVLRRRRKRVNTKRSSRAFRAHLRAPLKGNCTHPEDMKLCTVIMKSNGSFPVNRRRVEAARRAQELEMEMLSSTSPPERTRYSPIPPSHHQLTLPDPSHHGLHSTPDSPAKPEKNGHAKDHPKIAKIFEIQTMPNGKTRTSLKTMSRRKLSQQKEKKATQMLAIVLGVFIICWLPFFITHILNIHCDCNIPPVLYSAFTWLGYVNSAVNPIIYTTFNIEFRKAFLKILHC
# UniProt P11229: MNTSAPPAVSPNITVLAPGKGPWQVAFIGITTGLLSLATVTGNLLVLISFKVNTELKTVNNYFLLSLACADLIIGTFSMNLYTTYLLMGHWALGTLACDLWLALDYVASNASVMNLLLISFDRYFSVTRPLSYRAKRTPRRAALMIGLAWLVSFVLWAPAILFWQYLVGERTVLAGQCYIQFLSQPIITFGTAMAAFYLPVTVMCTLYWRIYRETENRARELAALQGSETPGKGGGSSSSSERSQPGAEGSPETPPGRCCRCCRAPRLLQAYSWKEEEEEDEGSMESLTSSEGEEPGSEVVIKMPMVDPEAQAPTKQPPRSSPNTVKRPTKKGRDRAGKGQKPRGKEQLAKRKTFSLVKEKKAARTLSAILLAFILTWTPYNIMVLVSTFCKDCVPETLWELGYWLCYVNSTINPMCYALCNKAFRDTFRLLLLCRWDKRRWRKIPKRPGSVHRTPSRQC
# Several values for one entry are separate records, joined by “and”; a condition that tells them apart may be missing. Equal values may be shown once. Inconclusive means that the source gave no clear call. Such entries were picked first, then a sample of the others. For some of these results: Where the call is inconclusive, the potency comes from a doubtful curve fit. The source holds several records for some structures; these can differ, active in one and inactive in another. Activity calls are given as the source filed them. Unless noted, calls come from the whole dose curve.
# How the values were obtained:
# [1] = biological target: 5-hydroxytryptamine receptor 2A (Homo sapiens) (UniProt P28223); test: 5-hydroxytryptamine receptor 2A (HTR2A) small molecule antagonists, cell-based qHTS assay (AID 1963586); conditions: HTR2A-CHO cells, DOI-induced calcium flux, fluorescence; series mostly up to 61.5 µM; note: nearly all actives have a fitted effect of over 45% in size
# Outline: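 CHO cells stably expressing human HTR2A were plated for 18 h at 37 C, then loaded with calcium dye for 1 h. Compounds were preincubated 5 min at room temperature before DOI (4 nM solution) was added. Kinetic fluorescence was read for 3 min.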
# [2] = biological target: Beta-2 adrenergic receptor (Homo sapiens) (UniProt P07550); test: Adrenergic beta2 receptor (ADRB2) small molecule agonists, cell-based qHTS assay (AID 1963593); conditions: CHO-ADRB2 cells, cAMP HTRF, 30 min;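 for activation: CHO cells stably overexpressing human ADRB2; % is set by controls: 0 for no effect and ±100 for the full control effect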
# Outline: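 CHO cells stably over-expressing ADRB2 were plated overnight at 37C, then dosed with compounds plus a stimulation mix containing 100uM IBMX and 25uM Ro-20-1724 for 0.5hr at room temperature. cAMP was measured by HTRF competition, 1hr.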
# [3] = biological target: D(2) dopamine receptor (Homo sapiens) (UniProt P14416); test: Dopamine D2 receptor (DRD2) small molecule agonists, cell-based qHTS assay (AID 1963594); conditions: HEK293-DRD2 cAMP HTRF, agonist mode, 30 min; activation: at 92.4 µM (top of the series) unless noted; note: nearly all actives have a fitted effect of over 35% in size; for activation: % is set by controls: 0 for no effect and ±100 for the full control effect
# Outline: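 HEK293 cells stably expressing DRD2 were cultured 24 h at 37 C, then given Ro20-1724 (0.1 mM final) and compounds for 10 min at room temperature. NKH477 (200nM) was then added for 30 min. cAMP was read by HTRF.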
# [4] = biological target: D(2) dopamine receptor (Homo sapiens) (UniProt P14416); test: Dopamine D2 receptor (DRD2) small molecule antagonists, cell-based qHTS assay (AID 1963595; active = well fitted inhibition curve with a large enough effect in the signal ratio in the repeat runs, with a control signal flat; inconclusive = weak or mixed curves, or effect the other way; the % refers to the signal ratio; for activity change, negative = inhibition: % is set by controls: 0 for no effect and ±100 for the full control effect); conditions: HEK293-DRD2 cAMP HTRF antagonist mode; activity change, negative = inhibition: at 92.4 µM (top of the series) unless noted
# Outline: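 HTRF cAMP read-out at 665 and 620 nm emission (340 nm excitation). Antagonist mode: compounds were tested against 12 nM quinpirole in DRD2-HEK293 cells, with 200 nM NKH477 raising cAMP and 0.1 mM Ro20-1724 blocking its breakdown.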
# [5] = biological target: 5-hydroxytryptamine receptor 2A (Homo sapiens) (UniProt P28223); test: 5-hydroxytryptamine receptor 2A (HTR2A) small molecule agonists, cell-based qHTS assay (AID 1963587); conditions: HTR2A-CHO cells, calcium flux fluorescence, agonist mode; series mostly up to 76.8 µM; note: nearly all actives have a fitted effect of over 30% in size; for activation: % is set by controls: 0 for no effect and ±100 for the full control effect
# Outline: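 HTR2A-CHO cells, plated 18 h at 37 C/5% CO2, dye-loaded 1 h at 37 C; compounds in DMSO added by pin tool (agonist mode). Intracellular calcium flux read as kinetic fluorescence on FDSS over 2 min at 1 s intervals.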
# [6] = biological target: Muscarinic acetylcholine receptor M1 (Homo sapiens) (UniProt P11229); test: Cholinergic receptor muscarinic 1 (CHRM1) small molecule antagonists, cell-based qHTS assay (AID 1963588); conditions: CHRM1-CHO antagonist mode, calcium flux fluorescence; series mostly up to 61.5 µM; note: nearly all actives have a fitted effect of over 40% in size
# Outline: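 Compounds were tested at 15 concentrations in three independent runs. Dye-loaded CHRM1-CHO cells were exposed 5 min at room temperature before stimulation by acetylcholine added at 50nM. Intracellular calcium was read kinetically on FDSS for 3 min.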
# [7] = cAMP Responsive Elements (CRE) small molecule agonists, cell-based qHTS assay (AID 1963590); conditions: CRE-bla HEK293T, beta-lactamase FRET ratio, 3 h; activation: at 92.4 µM (top of the series) unless noted
# Outline: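 Test agents in DMSO were incubated 3 h at 37 C/5% CO2 with CRE-bla HEK 293T cells seeded 18 h earlier; LiveBLAzer B/G FRET substrate was added and read after 2 h at room temperature.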
# [8] = cAMP Responsive Elements (CRE) small molecule antagonists, cell-based qHTS assay (AID 1963591; active = well fitted inhibition curve with a large enough effect in the signal ratio in the repeat runs, not every such curve was filed as active; inconclusive = weak or mixed curves, or effect the other way; the % refers to the signal ratio); conditions: CRE-bla HEK293T, beta-lactamase FRET ratio; activity change, negative = inhibition: at 92.4 µM (top of the series) unless noted
# Outline: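 Reporter line CRE-bla HEK 293T in dialyzed-FBS DMEM; cells preincubated 18 h, treated 3 h with compound plus NKH477 (0.25 uM final); LiveBLAzer FRET, 2 h RT.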
# [9] = activation: at 92.4 µM (top of the series) unless noted
# Potency is the fitted concentration of half-maximal effect.
structure (smiles),measurement,setting,value
CC(=O)OCCN(CCOC(C)=O)c1ccc(N=Nc2ccc([N+](=O)[O-])cc2C#N)cc1,Potency,[1],inactive
same,Potency,[2]; [9],inactive
same,Potency,[3],"inconclusive: 6.86 µM [falling, single point]"
OCCN1CCN(CCCN2c3ccccc3C=Cc3ccccc32)CC1,Potency,[1],active: 16.3 µM
same,"activity change, negative = inhibition",[4],inconclusive: -27.2% [at 42.5 µM]
Cc1ccc(C(C)C)cc1O,Potency,[5],inactive
COc1ccc2c(c1)CCCC2=O,Potency,[1],inactive
same,"activity change, negative = inhibition",[4],inconclusive: -22.6% [at 42.5 µM]
CCO[C@H](Cc1ccc(OCCc2ccc(OS(C)(=O)=O)cc2)cc1)C(=O)O,Potency,[1],"inconclusive: 23.1 µM [inhibitor, partial curve, poor fit]"
same,Potency,[2]; [9],"inconclusive: 1.7 nM [rising, full curve, poor fit]"
same,"activity change, negative = inhibition",[4],inconclusive: -22.3% [at 42.5 µM]
O=S1(=O)CC=CC1,Potency,[5],active: 37.6 µM
NS(=O)(=O)Cc1noc2ccccc12,Potency,[1],"inconclusive: 0.579 µM [inhibitor, single point]"
same,Potency,[2]; [9],inactive
same,Potency,[3],"inconclusive: 3.35 µM [rising, single point]"
same,Potency,[4],inactive
CC(=O)O[C@H]1CC[C@@]2(C)C(=CC[C@@H]3[C@@H]2CC[C@]2(C)C(C(C)=O)=CC[C@@H]32)C1,Potency,[1],"inconclusive: 0.0145 µM [inhibitor, full curve, poor fit]"
same,Potency,[2]; [9],inactive
same,Potency,[3],"inconclusive: 3.35 µM [rising, partial curve, poor fit]"
CCCCC[Si](OCC)(OCC)OCC,Potency,[1],inactive
same,Potency,[2]; [9],inactive
same,Potency,[4],inactive
CC(=O)OC(C)C,Potency,[5],inactive
same,Potency,[6],inactive
same,Potency,[2]; [9],inconclusive: 940 nM [inhibitor]
CCCCCCCCO[C@@H]1O[C@H](CO)[C@@H](O)[C@H](O)[C@H]1O,Potency,[1],inactive
same,"activity change, negative = inhibition",[4],inconclusive: 2.45%
O=S(=O)(O)NC1CCCCC1,Potency,[5],"inactive and inconclusive: 5.35 µM [activator, single point]"
same,Potency,[6],inactive
same,activation,[2]; at 19 µM (top of the series),inactive: -21.4%
same,activation,[2]; at 42.5 µM (top of the series),inconclusive: -0.258%
same,activation,[2]; at 92.4 µM (top of the series),inconclusive: 39.4%
CCOC(=O)CN1CCCC1=O,Potency,[1],inactive
same,Potency,[2]; [9],inactive
same,Potency,[4],inactive
CCCCC(CC)CO (stereo not drawn),Potency,[1],"inconclusive: 1.65 µM [inhibitor, single point]"
same,Potency,[2]; [9],"inconclusive: 60.3 µM [activator, single point] and inactive"
same,Potency,[4],inactive
COc1ccc2ccccc2c1,Potency,[1],active: 33.4 µM
same,Potency,[3],inactive
CCCCCCCCC1CO1 (stereo not drawn),Potency,[1],"inconclusive: 0.765 µM [inhibitor, full curve]"
same,Potency,[2]; [9],"inconclusive: 249 nM [inhibitor, single point]"
same,Potency,[3],inactive
CCC(C)OC(C)CC (stereo not drawn),Potency,[1],"inconclusive: 0.011 µM [inhibitor, full curve, poor fit]"
same,Potency,[2]; [9],inactive
same,"activity change, negative = inhibition",[4],inconclusive: -0.935%
N=C(N)S(=O)O,Potency,[1],"inconclusive: 0.0572 µM [inhibitor, full curve, poor fit]"
same,Potency,[3],inactive
CCN(CC)CCNC(C(=O)OCCC(C)C)c1ccccc1 (stereo not drawn),Potency,[5],inactive
same,Potency,[6],active: 0.516 µM
same,Potency,[2]; [9],"inconclusive: 11900 nM [inhibitor, partial curve, poor fit]"
O=C1CCCCC1,Potency,[1],"inconclusive: 17.6 µM [inhibitor, single point]"
same,Potency,[2]; [9],inactive
same,Potency,[3],inactive
COCCCC/C(=N\OCCN)c1ccc(C(F)(F)F)cc1,Potency,[1],inactive
same,activation,[3],inconclusive: -5.25% [at 42.5 µM]
C#Cc1ccc(-c2ccccc2F)cc1,Potency,[1],"inconclusive: 10.3 µM [inhibitor, partial curve, poor fit]"
same,Potency,[2]; [9],inactive
same,Potency,[4],inactive
CCOC(=O)c1ccc(OC(=O)CCCCCN=C(N)N)cc1,Potency,[1],"inconclusive: 13 µM [inhibitor, partial curve, poor fit]"
same,Potency,[2]; [9],inactive
same,"activity change, negative = inhibition",[4],inconclusive: -6.03% [at 42.5 µM]
O=C1CCCCCCCCCCC(=O)OCCO1,Potency,[5],inconclusive: 54.9 µM [activator]
same,Potency,[7],"inconclusive: 61.1 µM [rising, partial curve]"
same,Potency,[8],inconclusive: 68.6 µM
same,activation,[2]; [9],inconclusive: 2.19%
CCCOCCOCCOCCO,Potency,[5],inactive
same,Potency,[2]; [9],inactive
Cc1ccc2ccc3cccc4ccc1c2c34,Potency,[5],"inconclusive: 61.6 µM [activator, partial curve, poor fit]"
same,Potency,[7],"inconclusive: 48.5 µM [rising, partial curve, poor fit]"
same,Potency,[8],inactive
same,Potency,[2]; [9],"inconclusive: 34300 nM [activator, partial curve, poor fit]"
same,Potency,[4],"inconclusive: 61.1 µM [inhibitor, partial curve, poor fit]"

# Reformatted bar-delimited: part of the list above.
structure (smiles) | measurement | setting | value
O=C1CCCCCCCCCCC(=O)OCCO1 | Potency | [8] | inconclusive: 68.6 µM
same | activation | [2]; [9] | inconclusive: 2.19%
